This is an account of results in patent US7307101B2, “Use of 20-HETE synthesizing enzyme inhibitors as therapy for cerebral vascular disease” (MCW Research Foundation, Inc., priority 2000, dated 2007).

What is called IC50 is the concentration needed to halve the response being measured.

The test system of this experiment is EET formation in rat renal microsomes. The experiment can be described thus: EET formation in rat renal microsomes ([3H]-AA, Example 3). It is filed as biochemical. The following applies: SHR rat renal microsomes. As for the experimental part:
All procedure was carried out at 4° C. Renal cortex was pooled from twenty male SHR rats (6 weeks of age). They were homogenized extensively in lysis buffer (20 mM HEPES, pH 7.4, 1 mM EDTA, 100 μM p-(amidinophenyl)metanesulfonyl fluoride and 250 mM sucrose), and centrifuged at 16,000×g for 10 min. Supernatant was further centrifuged at 16,000×g for 30 min. Soluble fraction was collected and centrifuged at 200,000×g for 30 min. The resulting pellet was suspended in 50 mM MOPS buffer.
The reaction was terminated by adding formic acid and acetonitrile to a final concentration of 1% and 50%, respectively.

Regarding `Clc1ccc(COC(Cn2ccnc2)c2ccc(Cl)cc2Cl)c(Cl)c1` (centres unmarked) [miconazole], the “IC50, formation of EETs” value is listed as “approximately 0.5 μg/ml”. Besides, under “read-out: IC50, formation of EETs”, the half-maximal inhibitory concentration (IC50) was about 1000 nM.
